Laboratory results from paper PMC9245421, “The VvWRKY37 Regulates Bud Break in Grape Vine Through ABA-Mediated Signaling Pathways”.
Construct, isoform or probe ends are uncertain for at least one entry. No signal at the amounts used counts as a negative. For part of these data: At least one verdict was read from the data and is not stated in words by the source.

Tests used:
VvWRKY37-HIS [1] = assay: EMSA; conditions: EMSA: 2 ul of 5x buffer (50% glycerol, 50 mM MgCl2, 5 mM EDTA, 10 mM DTT, 500 mM KCl, 250 mM HEPES pH 7.4) in 10 ul, i.e. 1x = 10% glycerol, 10 mM MgCl2, 1 mM EDTA; recombinant protein; protein details: 6xHis (pET32a); label: biotin
VvWRKY37-HIS [2] = assay: competition with a labelled probe; conditions: 100-fold unlabeled vs PtA2-P2; EMSA: 2 ul of 5x buffer (50% glycerol, 50 mM MgCl2, 5 mM EDTA, 10 mM DTT, 500 mM KCl, 250 mM HEPES pH 7.4) in 10 ul, i.e. 1x = 10% glycerol, 10 mM MgCl2, 1 mM EDTA; recombinant protein; protein details: 6xHis (pET32a)

Sequence	binding result (VvWRKY37-HIS [1])	binding result (VvWRKY37-HIS [2])
CAATTTCCTCTCATTGACTTGTTTCCCACA (double strand) [VvA4.2-P1]	binds	
CCGACGGACTGAATCCGTCACCATTTGACAGTAGCTGCCACA (double strand) [PtA2-P3]	no binding	
GGTAAATCACGATATAATCAACGGAATAAAATCCGTCGG (double strand) [PtA2-mP2]		no binding
GGTAAATCACGATATCATTGACGGAATAAAATCCGTCGG (double strand) [PtA2-P2]	binds	
GGTATCAATAAATTGACTATTTTTTCTTTA (double strand) [VvA4.2-P3]	no binding	
TCATCTTTTCTTAATAGAATGACTAAGTAGCAAGTAGTATA (double strand) [PtA2-P1]	no binding	
TCTTCTCAGTTGGAAACATTGACCGCCACTTCTTTCGCCCTTT (double strand) [W37-P3]	binds	
TGATTTTGACCCTTTTTATGACATTACATA (double strand) [VvA4.2-P2]	no binding	
TTGGTGACAAGAAAAAATACATTGACTGAGAGCAATGAAGATT (double strand) [W37-P4]	binds	
